Test results taken from the supplement of paper PMC12067093, “Discovery and optimisation of a covalent ligand for TRIM25 and its application to targeted protein ubiquitination” (Chemical Science, 2025).
The other results are listed elsewhere or left out.

Protein sequences, listed by entry. Tags and fused reporters are not part of them. Lines headed by an entry give the natural chain unless they say otherwise; changes in a name come on top.
UniProt Q92499: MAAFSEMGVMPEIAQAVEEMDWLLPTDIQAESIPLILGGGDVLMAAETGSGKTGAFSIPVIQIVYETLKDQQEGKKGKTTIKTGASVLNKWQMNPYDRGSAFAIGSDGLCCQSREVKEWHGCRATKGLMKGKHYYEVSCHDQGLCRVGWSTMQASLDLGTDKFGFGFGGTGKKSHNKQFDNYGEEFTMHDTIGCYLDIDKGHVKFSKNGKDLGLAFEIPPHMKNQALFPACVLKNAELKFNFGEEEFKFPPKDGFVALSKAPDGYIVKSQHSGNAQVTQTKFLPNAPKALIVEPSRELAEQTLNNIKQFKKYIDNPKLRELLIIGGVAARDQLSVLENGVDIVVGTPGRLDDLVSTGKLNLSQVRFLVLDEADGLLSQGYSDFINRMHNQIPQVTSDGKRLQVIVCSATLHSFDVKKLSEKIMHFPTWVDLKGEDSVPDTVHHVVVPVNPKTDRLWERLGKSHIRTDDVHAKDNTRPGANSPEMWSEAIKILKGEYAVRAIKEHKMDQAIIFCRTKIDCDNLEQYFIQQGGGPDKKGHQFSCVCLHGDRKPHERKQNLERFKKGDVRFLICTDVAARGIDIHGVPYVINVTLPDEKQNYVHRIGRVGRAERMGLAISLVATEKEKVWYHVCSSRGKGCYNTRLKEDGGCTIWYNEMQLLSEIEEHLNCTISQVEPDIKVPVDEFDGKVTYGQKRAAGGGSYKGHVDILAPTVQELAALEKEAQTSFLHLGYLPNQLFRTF
UniProt Q7Z401: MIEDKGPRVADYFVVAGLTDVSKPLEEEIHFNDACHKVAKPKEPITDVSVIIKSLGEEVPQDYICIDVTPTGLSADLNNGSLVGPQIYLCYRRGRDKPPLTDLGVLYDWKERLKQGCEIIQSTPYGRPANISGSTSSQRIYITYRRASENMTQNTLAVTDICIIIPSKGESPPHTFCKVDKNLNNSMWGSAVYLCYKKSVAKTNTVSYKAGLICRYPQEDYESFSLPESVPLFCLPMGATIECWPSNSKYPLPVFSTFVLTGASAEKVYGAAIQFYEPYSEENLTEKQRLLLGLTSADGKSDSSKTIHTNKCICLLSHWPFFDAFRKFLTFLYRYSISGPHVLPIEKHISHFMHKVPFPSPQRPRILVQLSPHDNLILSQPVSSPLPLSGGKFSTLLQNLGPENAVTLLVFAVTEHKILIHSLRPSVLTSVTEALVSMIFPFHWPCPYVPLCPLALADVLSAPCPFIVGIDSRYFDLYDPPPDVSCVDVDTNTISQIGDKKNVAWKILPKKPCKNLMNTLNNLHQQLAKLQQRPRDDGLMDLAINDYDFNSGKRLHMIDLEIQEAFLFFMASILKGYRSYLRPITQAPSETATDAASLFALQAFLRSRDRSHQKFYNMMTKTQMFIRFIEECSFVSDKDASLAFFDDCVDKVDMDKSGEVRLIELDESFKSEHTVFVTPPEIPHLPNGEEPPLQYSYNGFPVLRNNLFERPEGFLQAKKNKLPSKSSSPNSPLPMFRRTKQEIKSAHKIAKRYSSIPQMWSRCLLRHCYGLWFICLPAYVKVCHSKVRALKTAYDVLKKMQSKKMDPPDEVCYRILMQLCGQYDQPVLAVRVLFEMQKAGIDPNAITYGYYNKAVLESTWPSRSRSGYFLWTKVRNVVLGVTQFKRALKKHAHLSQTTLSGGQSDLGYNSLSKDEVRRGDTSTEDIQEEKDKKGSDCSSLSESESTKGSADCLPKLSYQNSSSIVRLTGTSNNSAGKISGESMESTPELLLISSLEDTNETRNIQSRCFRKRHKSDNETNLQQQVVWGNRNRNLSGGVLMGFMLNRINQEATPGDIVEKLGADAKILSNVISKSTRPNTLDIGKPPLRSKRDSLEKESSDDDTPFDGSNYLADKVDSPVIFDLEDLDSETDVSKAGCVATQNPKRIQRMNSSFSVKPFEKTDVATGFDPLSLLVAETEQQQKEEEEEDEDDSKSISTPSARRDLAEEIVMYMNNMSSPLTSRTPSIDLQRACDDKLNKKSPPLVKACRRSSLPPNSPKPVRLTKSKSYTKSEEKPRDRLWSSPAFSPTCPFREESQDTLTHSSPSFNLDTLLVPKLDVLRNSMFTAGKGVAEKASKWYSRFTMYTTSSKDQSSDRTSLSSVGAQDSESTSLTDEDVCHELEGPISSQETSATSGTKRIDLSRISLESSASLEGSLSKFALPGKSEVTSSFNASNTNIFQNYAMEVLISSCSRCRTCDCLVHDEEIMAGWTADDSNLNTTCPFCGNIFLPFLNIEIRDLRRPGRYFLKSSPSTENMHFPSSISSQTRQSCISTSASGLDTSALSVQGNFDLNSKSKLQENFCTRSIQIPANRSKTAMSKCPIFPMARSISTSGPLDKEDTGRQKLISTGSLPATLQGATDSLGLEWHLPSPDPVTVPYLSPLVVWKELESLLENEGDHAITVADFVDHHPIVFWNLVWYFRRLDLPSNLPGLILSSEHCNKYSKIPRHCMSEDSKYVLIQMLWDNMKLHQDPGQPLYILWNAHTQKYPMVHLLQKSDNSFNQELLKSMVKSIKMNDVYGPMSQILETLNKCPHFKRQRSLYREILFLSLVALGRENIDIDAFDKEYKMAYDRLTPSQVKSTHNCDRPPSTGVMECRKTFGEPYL
UniProt Q16531, whole entry, looked up: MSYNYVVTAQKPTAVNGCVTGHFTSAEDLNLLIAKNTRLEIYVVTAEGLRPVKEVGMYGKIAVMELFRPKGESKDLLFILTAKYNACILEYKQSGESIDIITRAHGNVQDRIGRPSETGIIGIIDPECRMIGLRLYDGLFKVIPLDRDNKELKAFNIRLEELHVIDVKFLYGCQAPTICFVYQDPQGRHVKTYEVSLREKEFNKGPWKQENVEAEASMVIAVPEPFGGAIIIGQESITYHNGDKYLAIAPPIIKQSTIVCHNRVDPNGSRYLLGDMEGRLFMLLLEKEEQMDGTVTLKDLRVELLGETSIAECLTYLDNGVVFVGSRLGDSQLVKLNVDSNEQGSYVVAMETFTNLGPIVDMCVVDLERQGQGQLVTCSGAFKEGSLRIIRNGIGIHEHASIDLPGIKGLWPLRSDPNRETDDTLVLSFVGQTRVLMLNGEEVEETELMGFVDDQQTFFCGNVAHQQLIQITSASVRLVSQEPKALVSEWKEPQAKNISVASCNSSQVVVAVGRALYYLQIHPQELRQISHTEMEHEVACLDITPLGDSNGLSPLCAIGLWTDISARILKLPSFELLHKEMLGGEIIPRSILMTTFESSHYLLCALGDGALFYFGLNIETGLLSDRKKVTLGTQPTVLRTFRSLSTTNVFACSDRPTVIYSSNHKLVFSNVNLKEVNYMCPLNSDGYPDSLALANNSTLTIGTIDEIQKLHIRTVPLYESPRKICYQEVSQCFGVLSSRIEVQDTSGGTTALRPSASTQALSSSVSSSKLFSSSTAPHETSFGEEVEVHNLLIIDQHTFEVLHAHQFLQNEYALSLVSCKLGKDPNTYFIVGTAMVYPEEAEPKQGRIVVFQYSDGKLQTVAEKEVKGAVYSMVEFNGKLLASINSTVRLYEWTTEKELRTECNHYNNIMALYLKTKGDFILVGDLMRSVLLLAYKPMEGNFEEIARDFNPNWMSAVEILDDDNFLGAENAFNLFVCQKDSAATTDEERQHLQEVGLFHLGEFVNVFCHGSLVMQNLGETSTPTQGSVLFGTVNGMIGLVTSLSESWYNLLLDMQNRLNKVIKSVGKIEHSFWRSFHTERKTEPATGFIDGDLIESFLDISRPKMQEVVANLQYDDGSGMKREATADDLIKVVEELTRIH
UniProt O00571: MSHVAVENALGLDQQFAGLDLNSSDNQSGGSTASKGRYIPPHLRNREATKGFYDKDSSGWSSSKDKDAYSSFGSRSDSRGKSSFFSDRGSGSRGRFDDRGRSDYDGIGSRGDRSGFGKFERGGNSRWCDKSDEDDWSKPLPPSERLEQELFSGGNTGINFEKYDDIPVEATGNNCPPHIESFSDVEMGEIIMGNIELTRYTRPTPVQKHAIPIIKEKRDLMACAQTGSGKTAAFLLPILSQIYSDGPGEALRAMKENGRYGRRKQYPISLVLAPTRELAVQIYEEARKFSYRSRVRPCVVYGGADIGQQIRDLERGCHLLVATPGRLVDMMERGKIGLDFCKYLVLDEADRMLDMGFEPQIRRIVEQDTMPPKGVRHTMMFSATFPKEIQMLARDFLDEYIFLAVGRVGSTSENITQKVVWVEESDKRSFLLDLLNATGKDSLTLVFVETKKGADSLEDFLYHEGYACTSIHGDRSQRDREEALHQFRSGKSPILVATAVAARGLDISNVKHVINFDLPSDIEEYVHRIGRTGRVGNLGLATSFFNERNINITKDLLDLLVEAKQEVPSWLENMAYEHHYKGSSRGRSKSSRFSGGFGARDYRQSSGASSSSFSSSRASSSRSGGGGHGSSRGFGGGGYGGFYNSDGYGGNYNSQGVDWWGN
UniProt Q9NR30: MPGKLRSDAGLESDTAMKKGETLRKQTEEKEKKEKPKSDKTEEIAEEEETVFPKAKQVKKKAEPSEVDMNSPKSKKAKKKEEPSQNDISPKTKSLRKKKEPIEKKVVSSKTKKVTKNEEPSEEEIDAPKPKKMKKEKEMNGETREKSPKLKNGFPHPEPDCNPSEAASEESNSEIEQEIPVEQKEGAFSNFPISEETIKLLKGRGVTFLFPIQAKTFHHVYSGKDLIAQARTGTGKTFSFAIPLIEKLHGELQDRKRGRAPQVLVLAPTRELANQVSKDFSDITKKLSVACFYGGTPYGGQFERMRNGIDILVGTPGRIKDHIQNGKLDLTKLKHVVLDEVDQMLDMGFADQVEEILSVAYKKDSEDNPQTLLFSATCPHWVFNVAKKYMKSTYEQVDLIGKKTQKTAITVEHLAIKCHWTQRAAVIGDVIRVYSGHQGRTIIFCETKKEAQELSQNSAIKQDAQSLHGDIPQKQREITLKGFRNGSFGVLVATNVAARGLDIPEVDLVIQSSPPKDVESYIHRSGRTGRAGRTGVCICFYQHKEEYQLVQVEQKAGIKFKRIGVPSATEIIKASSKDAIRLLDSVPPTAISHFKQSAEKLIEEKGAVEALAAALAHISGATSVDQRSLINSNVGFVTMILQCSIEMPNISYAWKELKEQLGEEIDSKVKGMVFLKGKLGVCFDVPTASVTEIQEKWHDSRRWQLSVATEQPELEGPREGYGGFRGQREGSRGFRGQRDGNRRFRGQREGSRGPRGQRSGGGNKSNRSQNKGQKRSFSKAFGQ
UniProt Q8TDD1, whole entry, looked up: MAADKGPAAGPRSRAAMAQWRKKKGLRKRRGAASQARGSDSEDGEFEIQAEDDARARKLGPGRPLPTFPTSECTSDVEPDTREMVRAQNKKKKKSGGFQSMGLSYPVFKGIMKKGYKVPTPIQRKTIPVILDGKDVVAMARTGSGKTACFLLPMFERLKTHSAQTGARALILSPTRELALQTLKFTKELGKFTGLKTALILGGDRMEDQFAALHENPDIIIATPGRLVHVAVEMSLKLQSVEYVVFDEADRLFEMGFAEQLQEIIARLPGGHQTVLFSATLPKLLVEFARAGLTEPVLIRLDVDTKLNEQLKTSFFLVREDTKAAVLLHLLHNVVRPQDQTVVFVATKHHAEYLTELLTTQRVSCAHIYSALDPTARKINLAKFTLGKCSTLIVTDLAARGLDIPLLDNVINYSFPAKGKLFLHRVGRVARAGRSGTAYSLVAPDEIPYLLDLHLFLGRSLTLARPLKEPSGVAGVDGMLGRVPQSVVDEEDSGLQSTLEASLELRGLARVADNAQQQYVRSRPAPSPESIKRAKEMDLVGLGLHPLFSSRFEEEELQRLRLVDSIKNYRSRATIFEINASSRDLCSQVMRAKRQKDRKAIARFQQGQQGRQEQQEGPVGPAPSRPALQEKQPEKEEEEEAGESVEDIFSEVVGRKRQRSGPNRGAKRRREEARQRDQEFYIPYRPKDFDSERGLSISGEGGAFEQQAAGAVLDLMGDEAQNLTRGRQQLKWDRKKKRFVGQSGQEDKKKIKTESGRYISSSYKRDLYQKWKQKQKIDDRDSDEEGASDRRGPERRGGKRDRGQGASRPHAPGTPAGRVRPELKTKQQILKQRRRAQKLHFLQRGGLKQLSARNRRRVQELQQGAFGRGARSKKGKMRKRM
UniProt P35659: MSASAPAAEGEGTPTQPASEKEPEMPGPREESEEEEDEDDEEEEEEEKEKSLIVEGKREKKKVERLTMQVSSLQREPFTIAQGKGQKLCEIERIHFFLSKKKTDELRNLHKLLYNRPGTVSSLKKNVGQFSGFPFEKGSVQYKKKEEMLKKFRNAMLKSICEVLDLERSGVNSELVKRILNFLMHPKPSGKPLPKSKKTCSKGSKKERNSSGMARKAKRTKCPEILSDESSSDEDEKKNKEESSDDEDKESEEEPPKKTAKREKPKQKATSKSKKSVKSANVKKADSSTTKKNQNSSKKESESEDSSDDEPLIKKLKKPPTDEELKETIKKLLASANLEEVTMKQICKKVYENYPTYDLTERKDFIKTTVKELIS

Compound: CC1Cc2ccccc2N1C(=O)C1CCCN(C1)C(=O)CCl (mixture of isomers) [TRIM25 ligand 11 (diastereomer mixture)]
Assay: probe-labelled cysteine peptide fold change vs DMSO (competition) (log2 fold change); higher = less target engagement (more negative = stronger competition)
Settings: THP-1, incubation time: 4 h
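Further: competitive chemoproteomic profiling in live THP-1 cells with an iodoacetamide desthiobiotin (IA-DTB) probe, comparing probe-labelled peptide intensities in compound-treated cells against DMSO-treated controls.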

| Target | probe-labelled cysteine peptide fold change (10 µM) | probe-labelled cysteine peptide fold change (50 µM) |
| --- | --- | --- |
| DDX58_O95786_278_TFVSLLICEHHLK (UniProt O95786) | 0.286 | -0.0366 |
| DDX1_Q92499_542_GHQFSCVCLHGDR (UniProt Q92499) | 0.0203 | 0.031 |
| DDX42_Q86XP3_281_KSEYTQPTPIQCQGVPVALSGR (UniProt Q86XP3) | -0.13 | -0.213 |
| DDX28_Q9NUL7_360_LHCIMPHVK (UniProt Q9NUL7) | -0.061 | 0.0889 |
| DENND4A_Q7Z401_1843_STHNCDRPPSTGVMECR (UniProt Q7Z401) | 0.0493 | -0.342 |
| DDX17_Q92841_319_CTYLVLDEADR (UniProt Q92841) | -0.0284 | 0.0638 |
| DDAH2_O95865_220_AMAVLTDHPYASLTLPDDAAADCLFLRPGLPGVPPFLLHR (UniProt O95865) | 0.162 | 0.157 |
| DENND3_A2RUS2_91_TYGVVAQYYRPLHDEYCFYNGK (UniProt A2RUS2) | 0.0616 | -0.153 |
| DDX20_Q9UHI6_758_LQTEAQEDDWYDCHR (UniProt Q9UHI6) | 0.0414 | -0.106 |
| DDX51_Q8N8A6_253_GGYRPSDLCVSAPTGSGK (UniProt Q8N8A6) | 0.12 | 0.0522 |
| DDX18_Q9NVP1_407_ANATVDGLEQGYVVCPSEK (UniProt Q9NVP1) | 0.122 | 0.257 |
| DENND1C_Q8IV53_781_EEPGALNSPATPTSNCQK (UniProt Q8IV53) | -0.055 | -0.181 |
| DDX31_Q9H8H2_624_IGCHGSSLLILAPSEAEYVNSLASHK (UniProt Q9H8H2) | 0.102 | -0.251 |
| DDX39A_O00148_223_QCMMFSATLSK (UniProt O00148) | -0.114 | -0.0857 |
| DDHD2_O94830_207+227_RGVENISVDIHCGEPLQIDHLVFVVHGIGPACDLR (UniProt O94830) | 0.139 | -0.104 |
| DDB1_Q16531_903_ELRTECNHYNNIMALYLK (UniProt Q16531) | -0.546 | -0.233 |
| DENND4B_O75064_180_GEGTPHTYCR (UniProt O75064) | 0.0109 | 0.131 |
| DEAF1_O75398_401_ASHPEPHYPGYQDSCQIAPFPEAALPTSHPK (UniProt O75398) | 0.0195 | -0.139 |
| DDX41_Q9UJV9_264_EGPYGLIICPSR (UniProt Q9UJV9) | 0.245 | 0.0445 |
| DDX17_Q92841_166+199_GGDVCPKPVFAFHHANFPQYVMDVLMDQHFTEPTPIQCQGFPLALSGR (UniProt Q92841) | -0.612 | -0.604 |
| DENR_O43583_13_AADISESSGADCK (UniProt O43583) | -0.161 | -0.362 |

| Target | probe-labelled cysteine peptide fold change (10 µM) | probe-labelled cysteine peptide fold change (50 µM) |
| --- | --- | --- |
| DDX51_Q8N8A6_338_CLADIVVATPGR (UniProt Q8N8A6) | 0.196 | -0.0799 |
| DDX3X_O00571_128_WCDKSDEDDWSK (UniProt O00571) | -0.422 | -0.388 |
| DENND3_A2RUS2_1094_DTSTSFLAFQLLPEEEQLWAACAGR (UniProt A2RUS2) | 1.22 | -0.0979 |
| DCUN1D5_Q9BTE7_117_GMTSLQCDCTEK (UniProt Q9BTE7) | -0.0398 | 0.0636 |
| DERA_Q9Y315_118_AAGCNIPVASVAAGFPAGQTHLK (UniProt Q9Y315) | 0.0276 | 0.101 |
| DDX39A_O00148_164_NCPHVVVGTPGR (UniProt O00148) | 0.0425 | 0.0385 |
| DCXR_Q7Z4W1_150_AVTNHSVYCSTK (UniProt Q7Z4W1) | 0.0419 | 0.15 |
| DDX21_Q9NR30_418_CHWTQR (UniProt Q9NR30) | 0.0562 | 0.19 |
| DDX41_Q9UJV9_338_MVSLDICR (UniProt Q9UJV9) | 0.142 | -0.0542 |
| DDX42_Q86XP3_382_ALQEGAEIVVCTPGR (UniProt Q86XP3) | 0.0737 | 0.0996 |
| DDX5_P17844_234_LIDFLECGK (UniProt P17844) | -0.125 | -0.119 |
| DDX10_Q13206_196_INNINILVCTPGR (UniProt Q13206) | -0.0017 | 0.0569 |
| DDX41_Q9UJV9_338_KMVSLDICR (UniProt Q9UJV9) | -0.313 | -0.203 |
| DDX60L_Q5H9U9_1201_ILEISEDCTYADVK (UniProt Q5H9U9) | 0.301 | 0.00526 |
| DDX59_Q5T1V6_345_QSSVELCGVK (UniProt Q5T1V6) | -0.151 | 0.074 |
| DDX60L_Q5H9U9_938_CLNFLQDHSYK (UniProt Q5H9U9) | 0.0732 | -0.0548 |
| DDX1_Q92499_519_TKIDCDNLEQYFIQQGGGPDK (UniProt Q92499) | -0.0569 | -0.09 |
| DDX17_Q92841_319_CTYLVLDEADRMLDMGFEPQIR (UniProt Q92841) | -0.416 | -0.0954 |
| DDB1_Q16531_378_QGQGQLVTCSGAFK (UniProt Q16531) | 0.0987 | 0.102 |
| DDX17_Q92841_319_RCTYLVLDEADR (UniProt Q92841) | -0.083 | 0.0591 |
| DENND3_A2RUS2_197_ADPESPILDLDLHLPLLCFRPEK (UniProt A2RUS2) | 0.0355 | 0.188 |

| Target | probe-labelled cysteine peptide fold change (10 µM) | probe-labelled cysteine peptide fold change (50 µM) |
| --- | --- | --- |
| DENND3_A2RUS2_801_TECDLWHLMVK (UniProt A2RUS2) | -0.0633 | -0.108 |
| DENND4A_Q7Z401_648_DASLAFFDDCVDK (UniProt Q7Z401) | 0.218 | 0.0203 |
| DDX1_Q92499_571_FLICTDVAAR (UniProt Q92499) | 0.0469 | 0.0863 |
| DDX56_Q9NY93_185_SLLCHLPR (UniProt Q9NY93) | 0.556 | 0.332 |
| DDX50_Q9BQ39_633_GNMGVCFDVPTTESER (UniProt Q9BQ39) | 0.183 | -0.0499 |
| DDB1_Q16531_128_IGRPSETGIIGIIDPECR (UniProt Q16531) | -0.0106 | 0.0343 |
| DENND4B_O75064_636_LYSQLLHTQMFSQFIEECSFGSAR (UniProt O75064) | 0.237 | 0.0689 |
| DDX31_Q9H8H2_464_AVQEVCPPPAGDK (UniProt Q9H8H2) | 0.447 | 0.125 |
| DDX39A_O00148_74_AIVDCGFEHPSEVQHECIPQAILGMDVLCQAK (UniProt O00148) | -0.0326 | 0.112 |
| DDX24_Q9GZR7_467_CLVVDEADR (UniProt Q9GZR7) | 0.1 | 0.105 |
| DDX41_Q9UJV9_568_VPPVLQVLHCGDESMLDIGGER (UniProt Q9UJV9) | 0.141 | -0.103 |
| DECR1_Q16698_116_VHAIQCDVR (UniProt Q16698) | 0.065 | 0.0272 |
| DDX46_Q7L014_590_SVVCSDVEQQVIVIEEEK (UniProt Q7L014) | 0.0692 | 0.0608 |
| DDX20_Q9UHI6_162_MEGLECHVFIGGTPLSQDK (UniProt Q9UHI6) | 0.107 | 0.374 |
| DDX54_Q8TDD1_73_KLGPGRPLPTFPTSECTSDVEPDTR (UniProt Q8TDD1) | -0.0758 | -0.129 |
| DDX41_Q9UJV9_294_CALCIGGMSVK (UniProt Q9UJV9) | -0.132 | -0.0596 |
| DDX60L_Q5H9U9_986_HDDVYFDHFHPCAALTTDIIEK (UniProt Q5H9U9) | 0.0568 | 0.053 |
| DDX41_Q9UJV9_568_QKVPPVLQVLHCGDESMLDIGGER (UniProt Q9UJV9) | -0.039 | -0.143 |
| DDHD2_O94830_207_GVENISVDIHCGEPLQIDHLVFVVHGIGPACDLR (UniProt O94830) | 0.0139 | -0.0101 |
| DDX54_Q8TDD1_365_VSCAHIYSALDPTAR (UniProt Q8TDD1) | 0.209 | 0.138 |
| DDB1_Q16531_725_KICYQEVSQCFGVLSSR (UniProt Q16531) | -0.0766 | -0.201 |

| Target | probe-labelled cysteine peptide fold change (10 µM) | probe-labelled cysteine peptide fold change (50 µM) |
| --- | --- | --- |
| DDX20_Q9UHI6_577_EALPVSLPQIPCLSSFK (UniProt Q9UHI6) | -0.0605 | -0.0239 |
| DDX46_Q7L014_590_SVVCSDVEQQVIVIEEEKK (UniProt Q7L014) | -0.0837 | -0.0804 |
| DDX21_Q9NR30_537+539_TGVCICFYQHK (UniProt Q9NR30) | 0.016 | 0.174 |
| DDX1_Q92499_122_EWHGCR (UniProt Q92499) | -0.0432 | -0.0243 |
| DDX1_Q92499_406_RLQVIVCSATLHSFDVK (UniProt Q92499) | -0.12 | 0.0785 |
| DEF6_Q9H4E7_267_GIIPLDAHCCVEVLPDR (UniProt Q9H4E7) | 0.0266 | 0.124 |
| DDX1_Q92499_631_VWYHVCSSR (UniProt Q92499) | -0.0247 | 0.0568 |
| DEK_P35659_161_SICEVLDLER (UniProt P35659) | 0.0341 | 0.262 |
| DDX17_Q92841_166_GGDVCPK (UniProt Q92841) | -0.00595 | 0.0245 |
| DDX6_P26196_324_VHCLNTLFSR (UniProt P26196) | 0.158 | 0.183 |
| DEPDC5_O75140_416_SQLFCNSFTPR (UniProt O75140) | -0.0569 | -0.00573 |
| DCUN1D4_Q92564_253_DQWCNVLEFSR (UniProt Q92564) | 0.0408 | -0.0279 |
| DDX17_Q92841_431_CDDLTR (UniProt Q92841) | -0.0934 | -0.0816 |
| DDX5_P17844_191_ELAQQVQQVAAEYCR (UniProt P17844) | 0.0856 | 0.145 |
| DDX3X_O00571_298_VRPCVVYGGADIGQQIR (UniProt O00571) | 0.0311 | 0.0746 |
| DDX3Y_O15523_62_DSSGWSCSK (UniProt O15523) | -0.337 | -0.331 |
| DDX42_Q86XP3_333_ELEPGDGPIAVIVCPTR (UniProt Q86XP3) | 0.0933 | 0.0408 |
| DDX17_Q92841_397_DYTQINVGNLELSANHNILQIVDVCMESEK (UniProt Q92841) | 0.127 | -0.164 |
| DDB1_Q16531_725+732_KICYQEVSQCFGVLSSR (UniProt Q16531) | -0.109 | -0.26 |
